According to PubChem BioAssay AID2685 (National Center for Advancing Translational Sciences (NCATS), 2010):
Some of the results follow. Further columns of the screen follow, without active or inactive calls. Most of these compounds were active or inconclusive in the main read-out, so they are no random draw. Words in brackets tell the shape of the fitted curve; partial curves, single points and poor fits give uncertain potencies.

Experiment: qHTS Assay for Lipid Storage Modulators in Drosophila S3 Cells;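 on cell number change: cells counted by Cell Tracker Red CMTPX staining in the red channel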
Conditions: BODIPY lipid droplet fluorescence, 18-24 h; for cell number change: measured here: cell count max response, cells fed with added oleic acid
Summary of the method: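 Drosophila S3 cells loaded with oleic acid (400 uM, as added) and compounds at several concentrations; lipid droplets imaged by 488-nm laser-scanning cytometry, 500–530 nm intensity and object ratio to cell channel. Percent activity normalized to 20 uM Triacsin C.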

[1] = measured here: lipid fluorescence (Fed channel) AC50, cells fed with added oleic acid
[2] = measured here: cell number channel AC50, cells fed with added oleic acid

| SMILES | cell number change | AC50 [1] | AC50 [2] |
| --- | --- | --- | --- |
| CCCCn1c(SCC(=O)N2CCCCC2)nc2cc(S(N)(=O)=O)ccc21 | -28.9% | 29.1 µM [falling, single point] | – |
| Cc1cc(C)cc(-n2nnc(C(=O)NCc3ccccc3Cl)c2N)c1 | -6.32% | 23.1 µM [falling, single point] | – |
| COC(=O)C1=C(C)N(C)C(C)=C(C(=O)OC)C1c1cccc(Br)c1 | 4.69% | 2.91 µM [rising, partial curve] | – |
| Cc1csc2ncc(C(=O)Nc3cccc(C(F)(F)F)c3)c(=O)n12 | 68.4% | 20.6 µM [rising, partial curve] | 23.1 µM [rising, partial curve, poor fit] |
| O=C(Nc1nc(-c2ccc(S(=O)(=O)N3CCOCC3)cc2)cs1)c1ccccc1 | -18.2% | 20.6 µM [falling, single point] | – |
| O=C(CSC(=S)N1CCCC1)N1CCN(S(=O)(=O)c2cccc(F)c2)CC1 | 21% | 18.4 µM [falling, single point] | – |
| Cc1nc(C(=O)N2CCCC(C(=O)c3ccc(Cl)cc3)C2)cs1 (stereo not given) | 16.7% | – | – |
| CN(C)CCN1C(=O)c2oc3ccc(F)cc3c(=O)c2C1c1ccncc1 (stereo not given) | -22.8% | 16.4 µM [falling, partial curve] | 0.651 µM [falling, full curve, poor fit] |
| CCOC(=O)c1cnc2ccc(Br)cc2c1NCC(C)O (stereo not given) | 0.527% | 0.58 µM [rising, single point] | – |
| CCC(C)NC(=O)CNC(=O)Cn1c(C)cc2ccccc2c1=O (stereo not given) | -23% | 29.1 µM [falling, single point] | – |
| O=C1C(Cc2ccccc2)C(c2ccccc2)N1c1ccccc1 (stereo not given) | -17.5% | – | – |
| CN(C)S(=O)(=O)c1cccc(NC(=O)COc2ccc3ccccc3c2)c1 | -14.8% | 10.3 µM [falling, partial curve, poor fit] | – |
| O=C(CN1CC(c2ccccc2)CC1=O)N/N=C/c1cc(Br)ccc1O (stereo not given) | -5.13% | 29.1 µM [falling, single point] | – |
| COC(=O)C1CCN(C(=O)COc2ccc(N(C)S(=O)(=O)c3ccc(C)cc3)cc2)CC1 | -12.7% | – | – |
| CCCCN(CCCC)S(=O)(=O)c1ccc(OC)c2ncccc12 | -25.8% | 6.51 µM [rising, single point] | – |
| CC(=O)N(/N=C1\Sc2ccccc2C1=O)c1ccccc1C | – | 29.1 µM [falling, single point] | – |
| O=[N+]([O-])c1ccccc1-c1cc(-c2cc(Cl)ccc2O)n[nH]1 | -43.9% | 18.4 µM [falling, single point] | 20.6 µM [falling, partial curve] |
| O=C1Nc2ccc([N+](=O)[O-])cc2OC1CCN1CCCC1 (stereo not given) | 1.94% | 0.517 µM [rising, partial curve, poor fit] | – |
| COc1ccc(N2CCN(C(=O)CN(c3cccc(Br)c3)S(C)(=O)=O)CC2)cc1 | 29.6% | – | – |
| COc1cc(OC)cc(C(=O)Nc2ccccc2C(=O)NC2CC2)c1 | 27.8% | 3.26 µM [rising, partial curve] | 0.82 µM [rising, full curve, poor fit] |

2 compounds drawn at random from the list so far:

| SMILES | cell number change | AC50 [1] | AC50 [2] |
| --- | --- | --- | --- |
| CCC(C)NC(=O)CNC(=O)Cn1c(C)cc2ccccc2c1=O (stereo not given) | -23% | 29.1 µM [falling, single point] | – |
| CC(=O)N(/N=C1\Sc2ccccc2C1=O)c1ccccc1C | – | 29.1 µM [falling, single point] | – |

Next part

| SMILES | cell number change | AC50 [1] | AC50 [2] |
| --- | --- | --- | --- |
| CCCN1CCn2c3c(c4cc(Br)ccc42)CCCC31 (stereo not given) | – | 29.1 µM [falling, single point] | – |
| C=CCOC(=O)C1=C(C)NC(=O)NC1c1cc(Cl)cc(Cl)c1OC (stereo not given) | -42.1% | 1.84 µM [falling, full curve] | 13 µM [falling, partial curve] |
| O=C(NCC(=O)N1CCC(N2CCCCC2)CC1)C1CCCCC1 | -24.8% | 18.4 µM [falling, partial curve] | – |
| N/C(=N\S(=O)(=O)c1cc(C(F)(F)F)cc(C(F)(F)F)c1)c1cccs1 | -43.2% | 25.9 µM [falling, partial curve] | 23.1 µM [falling, partial curve] |
| CSCCC(NC(N)=O)C(=O)Nc1ccc(F)c(Cl)c1 (stereo not given) | 7.77% | – | – |
| CN(C)S(=O)(=O)c1ccc(Cl)c(NC(=O)COC(=O)c2ccc(O)cc2)c1 | -23.7% | – | – |
| Fc1ccccc1-n1c(-c2ccc3ccccc3n2)n[nH]c1=S | -0.923% | 0.517 µM [rising, partial curve, poor fit] | – |
| CCc1ccc(NC(=O)C(=O)N/N=C(\C)CC(=O)Nc2ccc(OC)cc2)cc1 | 17% | 1.16 µM [rising, single point] | – |
| COc1ccc(OC)c(-c2csc(NC(=O)C3=NN(c4ccccc4)C(=O)CC3)n2)c1 | – | – | 0.0058 µM [rising, full curve, poor fit] |
| Cc1ccc(/C=C2/C(=N)N3N=C(CC(=O)N4CCCC4)SC3=NC2=O)cc1 | -4.01% | – | 3.26 µM [falling, single point] |
| Cc1cccc(Nc2nnc(SC3CCOC3=O)s2)c1C (stereo not given) | 37.9% | – | 13 µM [rising, single point] |
| CCNC(=O)C(C)NC(=O)C1=NN(c2ccccc2)C(=O)CC1 (stereo not given) | 19.2% | – | – |
| N#Cc1ccc(Oc2cc(C(F)(F)F)nc(-c3ccccn3)n2)cc1 | -6.45% | 1.64 µM [rising, partial curve] | 4.61 µM [rising, single point] |
| Cc1cc(S(=O)(=O)N2CCN(CC(=O)N(C)Cc3ccccc3)CC2)ccc1Br | 25% | 3.66 µM [falling, single point] | – |
| O=C(O)c1ccc(-n2cccn2)nc1 | 2.55% | – | – |
| Cc1cccc(CN2C(=O)N/C(=C/c3cc(C)n(-c4ccccn4)c3C)C2=O)c1 | 1.24% | 1.03 µM [rising, full curve] | 0.206 µM [rising, full curve, poor fit] |
| COc1ccccc1C1Nc2cccc3cccc(c23)N1 | -58.4% | 29.1 µM [falling, single point] | 29.1 µM [falling, single point] |
| COc1ccc(N2CCN(C(=O)c3cc4c(=O)n(Cc5ccccc5)ccc4nc3C)CC2)cc1 | -0.917% | – | – |
| CCCCNC(=O)CO/N=C(\C)c1cc2ccccc2o1 | 24% | 29.1 µM [rising, single point] | – |
